Results taken from paper PMC5323126.
Results are given in words; binding and its absence hold for the method and conditions named. In cells and extracts the contact can be indirect. A yes stands for co-enrichment or nearness to the bait. Other partners may have been found. Sequences can lack the tags named with a protein.

Protein sequences, listed by entry. Tags and fused reporters are not part of them.
UniProt Q14258: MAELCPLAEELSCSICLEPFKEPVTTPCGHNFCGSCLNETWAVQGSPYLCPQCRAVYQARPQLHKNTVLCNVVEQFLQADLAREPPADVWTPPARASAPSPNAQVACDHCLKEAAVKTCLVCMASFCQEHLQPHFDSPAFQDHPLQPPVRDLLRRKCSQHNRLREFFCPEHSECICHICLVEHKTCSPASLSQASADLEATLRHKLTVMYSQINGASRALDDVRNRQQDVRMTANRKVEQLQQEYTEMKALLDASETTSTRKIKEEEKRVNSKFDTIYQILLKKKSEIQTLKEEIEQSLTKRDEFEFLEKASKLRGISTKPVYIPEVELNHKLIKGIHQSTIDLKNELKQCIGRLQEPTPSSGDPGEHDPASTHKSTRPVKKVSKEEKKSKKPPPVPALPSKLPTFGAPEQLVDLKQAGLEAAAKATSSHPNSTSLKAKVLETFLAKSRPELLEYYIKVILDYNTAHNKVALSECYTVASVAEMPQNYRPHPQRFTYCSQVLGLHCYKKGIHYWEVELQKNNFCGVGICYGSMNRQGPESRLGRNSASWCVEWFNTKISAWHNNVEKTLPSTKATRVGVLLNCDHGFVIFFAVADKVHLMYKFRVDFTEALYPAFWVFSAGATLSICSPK

Target: T1, ERG-V5 (full-length Ets related gene protein, V5-tagged) (UniProt P11308)
T1 sequence: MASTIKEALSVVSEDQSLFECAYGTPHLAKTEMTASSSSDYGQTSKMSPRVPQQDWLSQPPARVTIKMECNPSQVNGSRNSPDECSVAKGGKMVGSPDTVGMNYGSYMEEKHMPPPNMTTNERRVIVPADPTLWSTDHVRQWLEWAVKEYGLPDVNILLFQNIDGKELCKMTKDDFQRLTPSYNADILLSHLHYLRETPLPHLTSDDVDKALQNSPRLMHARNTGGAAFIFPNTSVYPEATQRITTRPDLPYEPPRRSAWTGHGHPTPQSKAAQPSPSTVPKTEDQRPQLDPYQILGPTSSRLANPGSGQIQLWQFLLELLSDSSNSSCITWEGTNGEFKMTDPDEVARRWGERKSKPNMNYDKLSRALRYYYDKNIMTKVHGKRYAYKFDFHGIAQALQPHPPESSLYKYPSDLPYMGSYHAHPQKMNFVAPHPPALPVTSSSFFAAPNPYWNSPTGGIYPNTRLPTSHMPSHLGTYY
Experiment: affinity purification with mass spectrometry; ERG-V5 immunoprecipitated from HEK293T with a V5 antibody as bait; VCaP whole cell extract; eluted proteins separated by SDS-PAGE, HPLC/MS/MS of tryptic peptides; only the target purified

- binding: binds
Substance: Tripartite motif-containing protein 25 (TRIM25), endogenous in VCaP cells (from UniProt Q14258 1-630)
